Source: PubChem BioAssay AID1259254 (NCATS, 2017)
Test: 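Genome-wide screen for genes that prevent DNA re-replication in cancer cells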 (primary screen). Cell system: human HCT116 colorectal cancer cells. Reagents: single siRNA against human genes. Timing: 3 days. Read-out: 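Imaged Hoechst DNA stain sorts each cell into a cycle phase by DNA amount; per plate, G2 fraction set to 0% for non-targeting and 100% for GMNN siRNA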. Direction: G2 robust z-score: higher = more G2 cells, more excess DNA replication. Rule for the call: 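Active siRNAs have a G2 robust z of 5 or more median absolute deviations over the median, which in these data means about 38% or higher of GMNN control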.
Shown is one part, drawn at random, of about 59,000 reagents. Over the whole deposit, about 1,550 (2.6%) were called active. 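G2 share is only a proxy for re-replication; each gene was hit by three separate siRNAs, and active genes were retested.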 Reagents against one gene are numbered here. Further read-outs or replicates are left out here. The record does not give: the amount of reagent.

G2 robust z-score, by target gene and reagent
FAM53B: #1 -0.886 inactive; #2 0.0206 inactive; #3 6.85 active
ZFP42: #1 0.751 inactive; #2 1.6 inactive; #3 0.246 inactive
XYLT1: #1 0.103 inactive; #2 -1.26 inactive; #3 -0.777 inactive
HPRT1: #1 1.53 inactive; #2 -0.386 inactive; #3 -0.464 inactive
PHTF2: #1 0.94 inactive; #2 -1.62 inactive; #3 -0.298 inactive
GNGT1: #1 -0.616 inactive; #2 -0.194 inactive; #3 -1.18 inactive
NKPD1: #1 0.268 inactive; #2 1.22 inactive; #3 1.09 inactive
AGTRAP: #1 -0.00729 inactive; #2 1.29 inactive; #3 -0.5 inactive
FDCSP: #1 -0.159 inactive; #2 -1.07 inactive; #3 -0.338 inactive
OR52B4: #1 2.23 inactive; #2 -0.184 inactive; #3 -0.378 inactive
PTPDC1: #1 -0.291 inactive; #2 -0.398 inactive; #3 -0.165 inactive
BRMS1L: #1 -0.293 inactive; #2 0.161 inactive; #3 -0.577 inactive
GPR21: #1 0.628 inactive; #2 0.417 inactive; #3 -1.07 inactive
WASF2: #1 0.128 inactive; #2 -0.424 inactive; #3 -0.776 inactive
CADM4: #1 0.166 inactive; #2 0.00162 inactive; #3 0.201 inactive
FKBPL: #1 -0.267 inactive; #2 3.93 inactive; #3 2.91 inactive
